Results on 1 compound are retold here after publication PMC10652874, “Investigation into the mechanism of action of the antimicrobial peptide epilancin 15X” (Frontiers in Microbiology, 2023).

This assay concerns fatty acid biosynthesis in S. carnosus TM300. In kind it is cell-based, Staphylococcus carnosus. The settings on record: S. carnosus TM300, 2× MIC, normalized to OD600, three independent experiments. As to the method:
Radiolabel incorporation experiments were carried out similarly as previously described but using S. carnosus ([Wu et al., 2019]). The OD600 of parallel nonradioactive cultures was measured at each time point to normalize the measured radioactivity and minimize effects due to cell death and growth inhibition. The radiolabeled reagents and their corresponding positive and negative antibiotic controls were as follows. Fatty acid: [^14C]-acetic acid (American Radiolabeled Chemicals, ARC 0101A), positive control: isoniazid (Sigma), negative control: ciprofloxacin. Cell wall: [^14C]-N-acetyl-D-glucosamine (American Radiolabeled Chemicals, ARC 0105), positive control: vancomycin, negative control: ciprofloxacin. DNA: [^14C]-thymidine (American Radiolabeled Chemicals, ARC 1219), positive control: ciprofloxacin, negative control: rifampicin. RNA: [5-^3H]-uridine (PerkinElmer, NET174250UC), positive control: rifampicin, negative control: ciprofloxacin. Amino acids: [^14C]-L-amino acid mixture (PerkinElmer, NEC850E050UC), positive control: chloramphenicol, negative control: ciprofloxacin. All experiments were conducted independently three times.
Figure S3. […] T he p ercent i nco rpo ratio n at 0 min was measured after incubati ng the cel l cultur e with 0.8 μCi/mL radioactive precursors for 15 min. […]

With `O=C(O)c1cn(C2CC2)c2cc(N3CCNCC3)c(F)cc2c1=O` [ciprofloxacin, reference compound], the “fatty acid biosynthesis (14C-acetic acid incorporation)” value is recorded as “much smaller”.
